Assay [1] addresses T1, phogrin–GST (UniProt Q63475).
T1 sequence: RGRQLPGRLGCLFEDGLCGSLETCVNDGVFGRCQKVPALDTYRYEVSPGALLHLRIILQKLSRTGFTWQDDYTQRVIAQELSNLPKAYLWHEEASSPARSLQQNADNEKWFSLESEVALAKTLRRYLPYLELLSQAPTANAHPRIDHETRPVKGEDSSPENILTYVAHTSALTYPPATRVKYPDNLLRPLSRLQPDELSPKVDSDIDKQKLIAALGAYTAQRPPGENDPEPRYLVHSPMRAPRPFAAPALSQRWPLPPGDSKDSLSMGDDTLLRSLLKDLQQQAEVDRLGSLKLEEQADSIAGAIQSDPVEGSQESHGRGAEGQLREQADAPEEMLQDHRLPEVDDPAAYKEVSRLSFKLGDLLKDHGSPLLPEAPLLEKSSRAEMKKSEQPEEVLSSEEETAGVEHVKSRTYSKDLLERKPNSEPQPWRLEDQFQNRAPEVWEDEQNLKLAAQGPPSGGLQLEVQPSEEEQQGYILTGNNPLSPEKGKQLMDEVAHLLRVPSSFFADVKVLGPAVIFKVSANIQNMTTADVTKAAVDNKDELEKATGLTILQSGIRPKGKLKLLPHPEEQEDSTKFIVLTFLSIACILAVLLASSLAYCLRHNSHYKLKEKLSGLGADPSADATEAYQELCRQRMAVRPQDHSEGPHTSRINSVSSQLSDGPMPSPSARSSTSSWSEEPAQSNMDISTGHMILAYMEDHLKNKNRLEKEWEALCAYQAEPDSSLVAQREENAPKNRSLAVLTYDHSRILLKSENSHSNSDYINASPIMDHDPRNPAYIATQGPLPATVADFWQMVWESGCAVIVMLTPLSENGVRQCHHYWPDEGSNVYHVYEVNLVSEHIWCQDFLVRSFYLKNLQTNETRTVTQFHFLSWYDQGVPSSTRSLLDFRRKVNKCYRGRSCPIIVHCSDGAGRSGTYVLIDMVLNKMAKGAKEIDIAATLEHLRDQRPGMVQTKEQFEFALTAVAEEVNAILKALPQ
Description: pull-down; MIN6/phogrin–EGFP and MIN6/phogrin–GST co-cultured 1:1 for 48 h at low density (75%, subconfluent), 2.0 mg extract pulled down with glutathione sepharose, blot with anti-GFP.

Assay [2] concerns the target T1, phogrin–GST. The assay can be described thus: pull-down; MIN6/phogrin–EGFP and MIN6/phogrin–GST co-cultured 1:1 for 48 h at high density (100%, confluent), 2.0 mg extract pulled down with glutathione sepharose, blot with anti-GFP.
The target in assay [3] is T1, phogrin–GST. The assay can be described thus: condition: only extracts of separately cultured cells mixed after lysis; pull-down; lysate mix: extracts (2.0 mg) of separately cultured MIN6/phogrin–EGFP and MIN6/phogrin–GST cells mixed, pulled down with glutathione sepharose, blot with anti-GFP.

These are yes or no findings as the source states them, for the method shown. Binding seen in cells or lysates may run through a third protein. Some results given as binding are weak or reduced against the parent protein; the word gives no strength. Where a sequence is shown, tags or fusion partners need not be part of it.

B1: phogrin–EGFP (protein, UniProt Q63475 28-1004)
chain: RGRQLPGRLGCLFEDGLCGSLETCVNDGVFGRCQKVPALDTYRYEVSPGALLHLRIILQKLSRTGFTWQDDYTQRVIAQELSNLPKAYLWHEEASSPARSLQQNADNEKWFSLESEVALAKTLRRYLPYLELLSQAPTANAHPRIDHETRPVKGEDSSPENILTYVAHTSALTYPPATRVKYPDNLLRPLSRLQPDELSPKVDSDIDKQKLIAALGAYTAQRPPGENDPEPRYLVHSPMRAPRPFAAPALSQRWPLPPGDSKDSLSMGDDTLLRSLLKDLQQQAEVDRLGSLKLEEQADSIAGAIQSDPVEGSQESHGRGAEGQLREQADAPEEMLQDHRLPEVDDPAAYKEVSRLSFKLGDLLKDHGSPLLPEAPLLEKSSRAEMKKSEQPEEVLSSEEETAGVEHVKSRTYSKDLLERKPNSEPQPWRLEDQFQNRAPEVWEDEQNLKLAAQGPPSGGLQLEVQPSEEEQQGYILTGNNPLSPEKGKQLMDEVAHLLRVPSSFFADVKVLGPAVIFKVSANIQNMTTADVTKAAVDNKDELEKATGLTILQSGIRPKGKLKLLPHPEEQEDSTKFIVLTFLSIACILAVLLASSLAYCLRHNSHYKLKEKLSGLGADPSADATEAYQELCRQRMAVRPQDHSEGPHTSRINSVSSQLSDGPMPSPSARSSTSSWSEEPAQSNMDISTGHMILAYMEDHLKNKNRLEKEWEALCAYQAEPDSSLVAQREENAPKNRSLAVLTYDHSRILLKSENSHSNSDYINASPIMDHDPRNPAYIATQGPLPATVADFWQMVWESGCAVIVMLTPLSENGVRQCHHYWPDEGSNVYHVYEVNLVSEHIWCQDFLVRSFYLKNLQTNETRTVTQFHFLSWYDQGVPSSTRSLLDFRRKVNKCYRGRSCPIIVHCSDGAGRSGTYVLIDMVLNKMAKGAKEIDIAATLEHLRDQRPGMVQTKEQFEFALTAVAEEVNAILKALPQ
Regarding B1, the figures for the binding result in assay [1], in assay [2] and in assay [3] were “binds weakly”, “binds” and “no binding”, respectively.

For the origin of these results see article PMC10780347.
